Source: PMC11246417

Molecular target: β-transducin repeat-containing protein (β-TrCP) (human (in HCT116 and P53R cells))
Test: co-IP; Dynabeads protein G loaded with 3 μg antibody of the target protein or IgG; cell lysate supernatant incubated with beads overnight at 4 °C; washed three times with lysis buffer; bound proteins and inputs detected by immunoblotting; HCT116 and P53R cells (Fig. 6G)

binding: binds
B1: Ubiquitin domain containing 1 (UBTD1) (protein, UniProt Q9HAC8 1-227)
chain: MGNCVGRQRRERPAAPGHPRKRAGRNEPLKKERLKWKSDYPMTDGQLRSKRDEFWDTAPAFEGRKEIWDALKAAAYAAEANDHELAQAILDGASITLPHGTLCECYDELGNRYQLPIYCLSPPVNLLLEHTEEESLEPPEPPPSVRREFPLKVRLSTGKDVRLSASLPDTVGQLKRQLHAQEGIEPSWQRWFFSGKLLTDRTRLQETKIQKDFVIQVIINQPPPPQD

Results are given in words; binding and its absence hold for the method and conditions named. In cells and extracts the contact can be indirect. Binding calls can cover weak binding; strength is not graded here.
